Assay results taken from PubChem BioAssay AID504467 (National Center for Advancing Translational Sciences (NCATS), 2011).
The campaign covered roughly 330,000 compounds. About 7,700 (2.3%) were called active. This list was built around the results that the source calls inconclusive (neither active nor inactive); the mix of calls is not that of the screen. Calls come from the whole dose curve; as a rule, active = well fitted inhibition curve with a large enough effect; inconclusive = small, poorly fitted or top-dose-only effect, or effect the other way; inactive = flat fitted curve, though single readings scatter. Where the call is inconclusive, the potency comes from a doubtful curve fit.

Assay: qHTS screen for small molecules that inhibit ELG1-dependent DNA repair in human embryonic kidney (HEK293T) cells expressing luciferase-tagged ELG1; note: nearly all actives have a fitted effect of over 55% in size
Conditions: HEK293T ELG1-luciferase reporter, luminescence, 16 h, DNA damage induced by 5-fluorouridine; activity change, negative = inhibition: at 46.1 µM (top of the series)
Procedure, shortened: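 5-Fluorouridine DNA damage + compound/DMSO, 2,000 cells/well, 16 h, 37 °C/5% CO2. ONE-Glo, 30 min RT, luminescence. Readout = decrease in reporter signal.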
% is set by controls: 0 for no effect and ±100 for the full control effect; potency is the fitted concentration of half-maximal effect.

| SMILES | Potency | activity change, negative = inhibition |
| --- | --- | --- |
| Cc1ccc(C2(C)NC(=O)N(CC(=O)Nc3ccc(-c4nc5ccc(C)cc5s4)cc3)C2=O)cc1 (stereo unspecified) | inconclusive: 1.16 µM [activator, full curve] |  |
| Cn1c2ccccc2c(=O)c2c(=O)n(Cc3ccco3)c(COc3ccccc3)nc21 | inconclusive: 18.4 µM [inhibitor, single point] |  |
| Cn1c(CCN2CCCC2)nc2cc(NS(=O)(=O)c3ccccc3)ccc21 |  | inactive: 5.94% |
| COCCCN1C(=O)C(=O)/C(=C(/O)c2ccc(S(=O)(=O)N3CCOCC3)cc2)C1c1ccc(F)cc1 (stereo unspecified) | inconclusive: 23.1 µM [activator, single point] |  |
| Cc1cc(-c2cccs2)n[nH]1 |  | inactive: 3.94% |
| CCOC(=O)c1c(-c2ccc(C)cc2)csc1NC(=O)/C(C#N)=C/c1ccc(O)c(OC)c1 | inconclusive: 25.9 µM [inhibitor, single point] |  |
| CCN1CCN(c2ccccc2NC(=O)C(C)Oc2ccc(C(C)=O)cc2)CC1 (stereo unspecified) |  | inactive: -27.7% |
| Cc1cccc(Nc2c(-c3ccc(N4CCOCC4)cc3)nc3ncccn23)c1 | inconclusive: 25.9 µM [inhibitor, partial curve, poor fit] |  |
| COc1ccc(OC)c(C(=O)c2ccccc2)c1 |  | inactive: -0.638% |
| CCN(CC)S(=O)(=O)c1cccc(-n2c(O)c(C=Nc3ccccc3C(=O)O)c3ccccc3c2=O)c1 | active: 5.8 µM |  |
| O=C(O)c1cccc(N/N=C/c2ccc(-c3ccccc3)cc2)c1 | inconclusive: 0.366 µM [activator, partial curve, poor fit] |  |
| COc1cc(OC)c2c(-c3cccc(-c4ccc(C#N)cc4)c3)cc(=O)oc2c1 | active: 4.61 µM |  |
| COc1cccc(NC(=O)CN(C)C(=O)CCCc2c[nH]c3ccccc23)c1 |  | inactive: -10.9% |
| O=C(NNc1nc2c(F)cccc2s1)c1cc(=O)c2ccccc2o1 | inconclusive: 20.6 µM [activator, single point] |  |
| Cc1ccc(NC(=O)N2CCc3ccccc32)cc1 | inconclusive: 0.731 µM [activator, partial curve] |  |
| CCC1(C)Cc2c(sc3nnn(CC(=O)Nc4cccc5ccccc45)c(=O)c23)CO1 (stereo unspecified) | inconclusive: 11.6 µM [inhibitor, partial curve] |  |
| O=C(CSc1nc2ccccc2o1)N1CCCC1 | inconclusive: 23.1 µM [activator, single point] |  |
| COc1ccc(N2CCN(C(=O)CCNS(=O)(=O)c3ccc(Br)s3)CC2)cc1 | inconclusive: 15.8 µM [inhibitor, single point] |  |
| CCOc1ccccc1OCCCOc1ccc(C)cc1Cl | inconclusive: 23.1 µM [activator, single point] |  |
| O=C(C1CCC1)N1CCc2cc(S(=O)(=O)NCCCN3CCCCC3)ccc21 |  | inactive: 18.4% |
| CCOC(=O)C1=C(CC)Nc2ccccc2N=C1NC(=O)c1ccc(S(=O)(=O)N(C)C)cc1 | inconclusive: 16.4 µM [inhibitor, single point] |  |
| CS(=O)(=O)c1ccc2nc(NC(=O)c3cccs3)sc2c1 | inconclusive: 2.59 µM [activator, partial curve] |  |
| c1ccc(-n2ncc3c(NCCCN4CCOCC4)ncnc32)cc1 | inconclusive: 5.62 µM [activator, full curve] |  |
| ON/C=N/C(=S)Nc1ncc(C(F)(F)F)cc1Cl |  | inactive: -17.1% |

| SMILES | Potency | activity change, negative = inhibition |
| --- | --- | --- |
| CC(C)C(=O)NCCc1nc2ccccc2n1CCOc1ccccc1 |  | inactive: 0.651% |
| CC(=O)c1ccc(NC(=O)CSc2ccsc2[N+](=O)[O-])cc1 | inconclusive: 16.4 µM [activator, partial curve] |  |
| COCCN1C(=O)C(=O)/C(=C(/O)c2ccc(S(=O)(=O)N3CCOCC3)cc2)C1c1cccc(OC)c1 (stereo unspecified) | inconclusive: 18.3 µM [activator, single point] |  |
| CC(C)CNC(=O)CC(c1ccccc1)c1ccccc1 |  | inactive: -4.98% |
| CC(=O)c1c(C(C)=O)c(C)n(Cc2ccccc2)c1C | inconclusive: 7.31 µM [inhibitor, single point] |  |
| COc1ccc(NC(=O)C(C)N2C(=O)C3CC=C(Cl)CC3C2=O)cc1 (stereo unspecified) |  | inactive: -1.26% |
| Nc1nn(S(=O)(=O)c2cccc3nsnc23)cc1-c1ccc(Br)cc1 | inconclusive: 20.6 µM [inhibitor, single point] |  |
| Cc1ccc(C(=O)OCC(=O)Nc2cc(C(C)(C)C)nn2-c2ccccc2)c(O)c1 | inconclusive: 13 µM [inhibitor, single point] |  |
| CCN(CC(=O)NC1CCS(=O)(=O)C1)c1nc(-c2ccccc2)nc2ccccc12 (stereo unspecified) | active: 13 µM |  |
| CSc1ccccc1NC(=O)CN(C)CC(=O)Nc1cc(C)ccc1C | inconclusive: 32.6 µM [inhibitor, single point] |  |
| NC(=O)c1cc(-c2ccccc2)nc2ccc(Br)cc12 |  | inactive: -3.39% |
| O=C(Nc1nc(-c2ccco2)cs1)c1ccccc1 | inconclusive: 3.26 µM [activator, full curve] |  |
| COc1cccc(-c2ccc3nnc(SCC(=O)N4CCOCC4)n3n2)c1 | inconclusive: 29.1 µM [activator, single point] |  |
| O=c1c2ccccc2nnn1-c1ccc(Br)cc1 | inconclusive: 16.4 µM [activator, partial curve] |  |
| Cc1cccc(NS(=O)(=O)c2cccc(C(=O)NCC(C)(C)N3CCOCC3)c2)c1 | inconclusive: 9.2 µM [inhibitor, partial curve, poor fit] |  |
| O=C(/C=C/c1cc([N+](=O)[O-])ccc1OC(F)F)Nc1ccc(OC(F)F)cc1 | inconclusive: 32.6 µM [activator, partial curve, poor fit] |  |
| CCOC(=O)c1nnn(-c2nonc2-n2cccc2)c1CN1CCC(C)CC1 |  | inactive: 11.5% |
| Brc1ccc(-c2cnc3n2CCCC3)cc1 |  | inactive: 3.49% |
| C=CCOc1ccc(/C=N/NC(=O)C(C)Sc2ccccn2)cc1OCC (stereo unspecified) | inconclusive: 29.1 µM [inhibitor, single point] |  |
| COc1ccc(CCNC(=O)Cn2nnc(-c3ccccc3F)n2)cc1OC |  | inactive: -11.5% |
| c1ccc(-c2noc(C3CCC3)n2)nc1 | inconclusive: 20.6 µM [activator, partial curve] |  |
| O=C1CSC(=S)N1c1cccnc1 |  | inactive: 3.61% |
| CCN(CC)S(=O)(=O)c1ccc(C)c(NC(=O)/C=C/c2cccs2)c1 | active: 16.4 µM |  |
| CC1CCN(C(C(=O)NC2CCCCC2)c2cc3c(cc2[N+](=O)[O-])OCO3)CC1 (stereo unspecified) | inconclusive: 29.1 µM [activator, partial curve, poor fit] |  |

| SMILES | Potency | activity change, negative = inhibition |
| --- | --- | --- |
| COc1cc([C@@H]2c3cc4c(cc3[C@H](O)[C@H]3COC(=O)[C@H]23)OCO4)cc(OC)c1OC |  | inactive: -4.4% |
| O=c1nc(/C=C/c2ccccc2C(F)(F)F)cc(C(F)(F)F)[nH]1 |  | inactive: 23% |
| CON(C)c1nc(OCCNC(=O)OCc2ccc(Cl)cc2Cl)nc(N(C)C)n1 | inconclusive: 23.1 µM [inhibitor, partial curve, poor fit] |  |
| Cc1cccc(-n2cc(CNCCc3nc(C)cc(C)n3)c(-c3cccc(F)c3)n2)c1 | active: 23.1 µM |  |
| O=C(CSc1nc2c(c(C(F)(F)F)n1)CCc1ccccc1-2)NCc1ccccc1 | inconclusive: 29.1 µM [inhibitor, single point] |  |
| COc1ccccc1/C=C/C(=O)NNC(=O)c1cccs1 | inconclusive: 18.3 µM [activator, single point] |  |
| CCCCC(=O)Nc1cccc(-c2nnc(-c3ccccc3)o2)c1 | inconclusive: 20.6 µM [inhibitor, single point] |  |
| O=C(NCc1ccccc1)c1onc(CSc2nc3ccccc3[nH]2)c1C(=O)NCc1ccccc1 | inconclusive: 13 µM [inhibitor, partial curve, poor fit] |  |
| O=C(NC(=S)Nc1ccc2cn[nH]c2c1)c1ccccc1 | inconclusive: 3.26 µM [activator, partial curve] |  |
| CCN(C(=O)COC(=O)c1cc(S(=O)(=O)Nc2c(C)n(C)n(-c3ccccc3)c2=O)ccc1Cl)C1CCCCC1 | inconclusive: 20.6 µM [inhibitor, single point] |  |
| CC(=O)C1=C(O)C(=O)N(Cc2ccccc2)C1c1ccco1 (stereo unspecified) |  | inactive: 1.75% |
| CN(/N=C/c1ccc(O)cc1O)c1nc(-c2ccccc2)cc(-c2ccccc2)n1 | inconclusive: 23.1 µM [inhibitor, partial curve] |  |
| COc1cc(CN(C(=S)NCC(=O)NC2CC2)C2CCCC2)cc(OC)c1OC | inconclusive: 32.6 µM [inhibitor, single point] |  |
| Cc1ccc(S(=O)(=O)C2(C(=O)Nc3nccs3)CC2)cc1 |  | inactive: 5.74% |
| CC(C)(C)c1nnc(NC(=O)CCS(=O)(=O)c2ccccc2)s1 |  | inactive: 6.3% |
| Cc1cnc(C(=O)OCc2nc3ccccc3o2)cn1 |  | inactive: -3.74% |
| CC(=O)Oc1ccc2ccccc2c1C(NC(=O)Cc1ccccc1)c1ccccc1Cl (stereo unspecified) | inconclusive: 6.51 µM [inhibitor, single point] |  |
| Fc1ccc(C2=CC(c3cccs3)n3nnnc3N2)cc1 (stereo unspecified) | inconclusive: 18.3 µM [activator, single point] |  |
| COCCCNc1nc2ccccc2nc1NS(=O)(=O)c1ccc(Cl)cc1 |  | inactive: -15.4% |
| COc1ccc(N2C(=O)C3CCCN3C2c2ccccc2OC)cc1 (stereo unspecified) | inconclusive: 23.1 µM [activator, partial curve, poor fit] |  |
| Cc1cc(C)cc(N(CC(=O)Nc2ccc(Br)cc2)S(=O)(=O)c2c(C)[nH]c(=O)[nH]c2=O)c1 |  | inactive: 9.13% |
| Cc1cccc(C(=O)N2CCN(Cc3ccc4c(c3)OCO4)CC2)c1 | inconclusive: 14.6 µM [inhibitor, partial curve, poor fit] |  |
| CC(C)NC(=O)C(=O)NC1CCCCCC1 | inconclusive: 13 µM [activator, partial curve] |  |

Some values from the entries so far:
For Potency, CC(=O)Oc1ccc2ccccc2c1C(NC(=O)Cc1ccccc1)c1ccccc1Cl (stereo unspecified) is listed with inconclusive: 6.51 µM [inhibitor, single point]
For activity change, negative = inhibition, COCCCNc1nc2ccccc2nc1NS(=O)(=O)c1ccc(Cl)cc1 is listed with inactive: -15.4%
For Potency, CON(C)c1nc(OCCNC(=O)OCc2ccc(Cl)cc2Cl)nc(N(C)C)n1 is listed with inconclusive: 23.1 µM [inhibitor, partial curve, poor fit]
